Results deposited as PubChem BioAssay AID1053208 (Peter MacCallum Cancer Centre, 2014).

- Test: 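Find knock-downs that sensitise mouse osteosarcoma cells to doxorubicin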 (primary screen)
- Cells: mouse osteosarcoma cells, early-passage culture from an engineered mouse model of fibroblastic bone tumour
- Reagents: siRNA pool against mouse genes, 40 nM
- Timing: about 120 h (48 h before drug, then 72 h with drug)
- Conditions: doxorubicin 100 nM for 72 h, roughly 30-40% inhibitory dose
- Detection: 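Viability read as ATP luminescence after 72 h of 100 nM doxorubicin or none, duplicate wells averaged, scaled to non-targeting siRNA, then expressed as robust z-scores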
- Scale: viability z-score with doxorubicin and doxorubicin viability vs non-targeting: higher = more viable cells under doxorubicin; viability z-score without drug: higher = more viable cells with knock-down alone; z-score of drug to no-drug ratio: higher = less drug sensitisation by knock-down
- Call rule: 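a pool counts as active when its viability z-score with doxorubicin is -2 or below and its z-score without drug lies between -2 and 2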
Shown is a random part of about 17,000 reagents tested. 788 of all reagents (4.7%) were called active. 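Calls rest on z-score classes alone; an extra cut-off of viability at most 70% of control was not applied to them.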 No sequences are given here.

no.	target gene	combined z-score class	viability z-score with doxorubicin	viability z-score without drug	z-score of drug to no-drug ratio	doxorubicin viability vs non-targeting	call
1	Esyt2 (extended synaptotagmin-like protein 2)	no change with or without drug	-0.22	0.84	-0.67	0.92	inactive
2	Scamp2	no change with or without drug	1.46	-0.34	1.91	1.07	inactive
3	Tmem184a (transmembrane protein 184a)	high cell count with and without drug	3.26	2.19	1.8	1.23	inactive
4	Tom1 (target of myb1 trafficking protein)	no change with or without drug	-0.67	-0.51	-0.22	0.88	inactive
5	Tmc8 (transmembrane channel-like gene family 8)	no change with or without drug	1.46	0.84	1.01	1.07	inactive
6	Tfap2b (transcription factor AP-2 beta)	no change with or without drug	0.22	0.84	-0.22	0.96	inactive
7	Nfkbid	no change with or without drug	-0.9	-0.84	-0.22	0.86	inactive
8	Map3k7 (mitogen-activated protein kinase kinase kinase 7)	no change with or without drug	-1.35	-0.34	-1.12	0.82	inactive
9	Sntg2 (syntrophin, gamma 2)	no change with or without drug	-0.22	0.17	-0.22	0.92	inactive
10	Slc16a10	no change with or without drug	0.22	-0.17	0.45	0.96	inactive
11	Ramp2 (receptor (calcitonin) activity modifying protein 2)	no change with or without drug	0.67	0.17	0.67	1	inactive
12	Fmn2 (formin 2)	no change with or without drug	1.8	1.52	0.9	1.1	inactive
13	Shld2 (shieldin complex subunit 2)	no change with or without drug	-0.56	-1.18	0.34	0.89	inactive
14	Prkaa2 (protein kinase, AMP-activated, alpha 2 catalytic subunit)	no change with or without drug	0	-0.84	0.67	0.94	inactive
15	Myl4 (myosin, light polypeptide 4)	no change with or without drug	-0.45	-1.35	0.56	0.9	inactive
16	Rnasel	no change with or without drug	0.67	0.84	0.22	1	inactive
17	Impg2 (interphotoreceptor matrix proteoglycan 2)	no change with or without drug	-0.22	-0.51	0.22	0.92	inactive
18	Or3a10 (olfactory receptor family 3 subfamily A member 10)	no change with or without drug	-0.9	-1.85	0.45	0.86	inactive
19	Krt32 (keratin 32)	no change with or without drug	-0.9	-1.18	0	0.86	inactive
20	Fbxo9 (F-box protein 9)	no change with or without drug	0.45	0.17	0.45	0.98	inactive
21	Mast2 (microtubule associated serine/threonine kinase 2)	no change with or without drug	1.35	0.67	1.01	1.06	inactive
22	Arhgef38 (Rho guanine nucleotide exchange factor 38)	no change with or without drug	-0.9	-0.17	-0.79	0.86	inactive
23	Ttpa (tocopherol (alpha) transfer protein)	high cell count without drug only	0	2.19	-1.24	0.94	inactive
24	Crebbp (CREB binding protein)	no change with or without drug	-0.9	-0.17	-0.79	0.86	inactive
25	Cyp4f16 (cytochrome P450, family 4, subfamily f, polypeptide 16)	no change with or without drug	1.35	0.51	1.12	1.06	inactive
26	Rab34 (RAB34, member RAS oncogene family)	no change with or without drug	0.9	0.51	0.67	1.02	inactive
27	Gzmn (granzyme N)	no change with or without drug	1.12	0.51	0.9	1.04	inactive
28	Or13f5 (olfactory receptor family 13 subfamily F member 5)	no change with or without drug	0	-1.35	1.12	0.94	inactive
29	Lrp12 (low density lipoprotein-related protein 12)	no change with or without drug	0.34	-1.18	1.35	0.97	inactive
30	Ap3s2 (adaptor-related protein complex 3, sigma 2 subunit)	no change with or without drug	1.35	1.35	0.56	1.06	inactive
31	Camta2 (calmodulin binding transcription activator 2)	no change with or without drug	0.45	-0.17	0.67	0.98	inactive
32	Sema4a	low cell count without drug only	-1.57	-2.53	0.22	0.8	inactive
33	Adgrg7 (adhesion G protein-coupled receptor G7)	no change with or without drug	-0.79	-1.01	0	0.87	inactive
34	Sstr1 (somatostatin receptor 1)	no change with or without drug	-1.8	0.17	-1.91	0.78	inactive

3 entries already listed, arranged by “viability z-score without drug”, lowest first:
target gene	combined z-score class	viability z-score with doxorubicin	viability z-score without drug	z-score of drug to no-drug ratio	doxorubicin viability vs non-targeting	call
Or13f5 (olfactory receptor family 13 subfamily F member 5)	no change with or without drug	0	-1.35	1.12	0.94	inactive
Lrp12 (low density lipoprotein-related protein 12)	no change with or without drug	0.34	-1.18	1.35	0.97	inactive
Ap3s2 (adaptor-related protein complex 3, sigma 2 subunit)	no change with or without drug	1.35	1.35	0.56	1.06	inactive
